Measurements taken from publication PMC10747396.
These are yes or no findings as the source states them, for the method shown. In cells and extracts the contact can be indirect. Some results given as binding are weak or reduced against the parent protein; the word gives no strength.

Key:
Assay in all cases: co-IP
[1] = molecular target: HCoV-OC43 N protein, HIS6 tag (pET28a) (HCoV-OC43) (UniProt P33469)
[2] = molecular target: HCoV-HKU1 N protein, HIS6 tag (pET28a) (HCoV-HKU1) (UniProt Q5MQC6)
[3] = molecular target: SARS-CoV-2 N protein truncation N^174–419, 3XFlag tag (pCDNA3.1) (SARS-CoV-2) (UniProt P0DTC9)
[4] = molecular target: MAVS, 3XFlag tag (pCDNA3.1) (UniProt Q7Z434)
[5] = molecular target: SARS-CoV-2 N protein truncation N^364–419, 3XFlag tag (pCDNA3.1) (SARS-CoV-2) (UniProt P0DTC9)
[6] = molecular target: SARS-CoV-2 N protein truncation N^255–419, 3XFlag tag (pCDNA3.1) (SARS-CoV-2) (UniProt P0DTC9)

| Substance | binding [1] | binding [2] | binding [3] | binding [4] | binding [5] | binding [6] |
| --- | --- | --- | --- | --- | --- | --- |
| UBC9, GST tag (pGEX-6P-1) (from UniProt P63279 1-158) (enzyme) | binds | binds |  |  |  |  |
| human SUMO-conjugating E2 enzyme UBC9, GFP tag (pEGFP-N1) (from UniProt P63279 1-158) |  |  | no binding | binds | no binding | no binding |
